Results from patent publication US10233209B2, “Inhibitors of the farnesoid x receptor and uses in medicine” (The United States of America, as represented by the …, priority 2013, dated 2019).
“Also recorded” adds a separate entry of the source.

Columns and labels:
Assay type in all cases: in vivo, mouse
db/db mice = test: Gly-MCA in leptin receptor-deficient (db/db) mice
Source text: (§1) High-fat diet (HFD) (60% kcal consisting of fat) was purchased from Bioserv. […] Fxr^fl/fl and Fxr^ΔIE (Kim et al., J. Lipid Res. 48:2664-2672, 2007) mice were backcrossed with C57BL/6N mice for over 10 generations. For the antibiotic (the combination of bacitracin, neomycin, and streptomycin) study, male C57BL/6N mice from 6 weeks of age were fed a high-fat diet (“HFD) and administered 0.1% (w/v) of each compound (the combination of bacitracin, neomycin, and streptomycin) in the drinking water. […] For TβMCA in vivo, male C57BL/6N mice from 6 weeks of age were fed a HFD and treated with the antibiotics (0.1% of each compound of bacitracin, neomycin, and streptomycin combination) for 3 days. Vehicle (saline), TCA (400 mg/kg body weight, dissolved in saline) or a combination of TCA and TβMCA (400 mg/kg body weight of each compound, dissolved in saline) were orally administered to the mice and followed by a second dose 12 h later. The mice were killed 2 h later for tissue collection. For the Gly-MCA study, Gly-MCA was custom synthesized. Bacon-flavored dough pills were produced as described (Walker et al., Toxicol. Appl. Pharmacol. 260:65-69, 2012) for oral administration of Gly-MCA (0.25 mg Gly-MCA/pill, dose of 10 mg/kg). Mice were trained to eat the dough pills prior to the study. For the prevention of obesity, insulin resistance and NAFLD, male wild-type (WT) C57BL/6N mice, 6- to 8-weeks-old, were fed a high-fat diet (Bio-Serv, Frenchtown, N.J.; 60 kcal % fat) from the age of 6 weeks and were orally administered with vehicle (control pills) or Gly-MCA (0.25 mg/pill/day, dose 10 mg/kg). C57BL/6N mice fed a high-fat diet for 12 weeks were administered (0.25 mg Gly-MCA/pill, dose of 5 mg/kg). Leptin-deficient db/db mice, 6- to 8-weeks-old, fed a chow diet, were administered Gly-MCA (0.25 mg/pill/day, 10 mg/kg). Mice were housed individually in their home cages. Cumulative food intake and TEEbal were measured for 1 week in vehicle and Gly-MCA-treated mice from 6 to 7 weeks of HFD. TEEbal was measured as previously described (Ravussin et al., Int. J. Obesity 37:399-403, 2013).

HFD-induced obese mice = test: Gly-MCA in C57BL/6N mice made obese by 12 weeks of high-fat diet; conditions: 5 mg/kg, 6 weeks
Source text: High-fat diet (HFD) (60% kcal consisting of fat) was purchased from Bioserv. […] Fxr^fl/fl and Fxr^ΔIE (Kim et al., J. Lipid Res. 48:2664-2672, 2007) mice were backcrossed with C57BL/6N mice for over 10 generations. For the antibiotic (the combination of bacitracin, neomycin, and streptomycin) study, male C57BL/6N mice from 6 weeks of age were fed a high-fat diet (“HFD) and administered 0.1% (w/v) of each compound (the combination of bacitracin, neomycin, and streptomycin) in the drinking water. […] For TβMCA in vivo, male C57BL/6N mice from 6 weeks of age were fed a HFD and treated with the antibiotics (0.1% of each compound of bacitracin, neomycin, and streptomycin combination) for 3 days. Vehicle (saline), TCA (400 mg/kg body weight, dissolved in saline) or a combination of TCA and TβMCA (400 mg/kg body weight of each compound, dissolved in saline) were orally administered to the mice and followed by a second dose 12 h later. The mice were killed 2 h later for tissue collection. For the Gly-MCA study, Gly-MCA was custom synthesized. […] Cumulative food intake and TEEbal were measured for 1 week in vehicle and Gly-MCA-treated mice from 6 to 7 weeks of HFD. TEEbal was measured as previously described (Ravussin et al., Int. J. Obesity 37:399-403, 2013).

[1] = tested on: HFD-treated C57BL/6N mice; test: Gly-MCA in mice fed a high-fat diet (prevention of obesity, insulin resistance, NAFLD); conditions: HFD 9 weeks
Source text: as §1
The mucosa of intestine was gently scraped and liver was taken and both were flash frozen in liquid nitrogen and stored at −80° C. until RNA was prepared. RNA was extracted from frozen intestine and liver using TRIzol reagent (Invitrogen, Carlsbad, Calif.). cDNA was synthesized from 1 μg total RNA using Superscript II reverse transcriptase (Invitrogen, Carlsbad, Calif.). qPCR primers were designed with qPrimerDepot. Measured mRNA levels were normalized to those of 18S ribosomal RNA and expressed as fold change relative to those of control group.
Lipidomics analysis: For serum lipidomics analysis 25 μl serum were extracted by 4-fold cold chloroform:methanol (2:1) solution containing 2 μM LPC (17:0), PC (17:0), SM (17:0) and CER (17:0) (Avanti Polar Lipids, Alabaster, Ala.) as internal standards. The samples were vortexed for 30 s and then allowed to stand for 5 min at room temperature. The mixture was centrifuged at 13,000 rpm for 5 min and then the lower organic phase was collected and evaporated at room temperature under vacuum. The residue was dissolved in chloroform:methanol (1:1), followed by diluting with isopropanol:acetonitrile:H2O (2:1:1) containing 2 μM PC (17:0) prior to UPLC-MS analysis. For tissue lipidomics analysis, about 50 mg of accurately weighted tissues were homogenized with 700 μL methanol: H2O (4:3) solution and then extracted using 800 μL chloroform containing 2 μM LPC (17:0), SM (17:0) and CER (17:0) as internal standards. The homogenate was incubated at 37° C. for 20 min followed by centrifuged for 20 min at 13,000 rpm. The lower organic phase was transferred to a new tube and dried under vacuum. The residue was suspended with 100 chloroform:methanol (1:1) solution and then diluted with isopropanol:acetonitrile:H2O (2:1:1) solution containing 2 μM PC (17:0) before injection. […]

[2] = lipidomics: ceramides and free fatty acids in serum and ileum; conditions: HFD 14 weeks
gut microbiome = gut microbiome composition (16S rRNA gene sequencing, qPCR)
[3] = 1H NMR-based metabolomics of cecal contents and liver; conditions: vs vehicle
[4] = db/db section of text, vs vehicle
[5] = normal chow diet, 5 days tempol by gavage 250 mg/kg
[6] = wild-type mice on high-fat diet

C[C@H](CCC(=O)NCC(=O)O)[C@H]1CC[C@H]2[C@@H]3[C@@H](O)[C@@H](O)[C@@H]4C[C@H](O)CC[C@]4(C)[C@H]3CC[C@]12C [Gly-MCA, glycine-β-muricholic acid]
levels of T-α-MCA and TβMCA in feces (db/db mice; db/db mice, 6 weeks): significantly increased
levels of T-α-MCA and TβMCA in ileum (db/db mice; db/db mice, 6 weeks): significantly increased
ileum C16:0, C18:0, C18:1, C20:0, C22:0, C24:0 and C24:1 ceramides levels (db/db mice; [4]): reduced
serum C16:0, C20:0, C22:0, and C24:1 ceramides levels (db/db mice; [4]): reduced
levels of TαMCA and TβMCA in feces (HFD-induced obese mice): significantly enhanced
TCA levels in feces [1]: significantly decreased
ileum C16:0, C18:1, and C24:0 ceramides levels [1]: reduced
levels of T-β-MCA in feces [1]: significantly increased
levels of TβMCA in the ileum [1]: significantly increased
levels of taurine-conjugated bile acids in the ileum [1]: increased
serum C16:0, C20:0, C22:0, and C24:1 ceramides levels [1]: reduced

CC1(C)CC(O)CC(C)(C)N1[O] [tempol, 4-hydroxy-2,2,6,6,-tetramethylpiperidine-1-oxyl]
ileum and serum C16:0, C18:0, C20:0, C22:0, C24:0 and C24:1 ceramide levels ([2]; Fxr^fl/fl mice): significantly decreased
ileum and serum C16:0, C18:0, C20:0, C22:0, C24:0 and C24:1 ceramide levels ([2]; Fxr^ΔIE mice): but not in Fxr^ΔIE mice
Firmicutes abundance in cecal communities (gut microbiome; HFD 12 weeks): significantly decreased
Proteobacteria abundance in cecal communities (gut microbiome; HFD 12 weeks): markedly increased
genus Bacteroides and Streptococcus levels in cecum content (gut microbiome; HFD 12 weeks): remained similar
genus Clostridium sensu stricto and Lactobacillus levels in cecum content (gut microbiome; HFD 12 weeks): significantly decreased
genus Desulfovibrio in cecum content (gut microbiome; HFD 12 weeks): major contributor of the increased Proteobacteria
genus Roseburia in cecum content (gut microbiome; HFD 12 weeks): dramatic increase
genus Lactobacillus of the Lactobacillaceae (feces) (gut microbiome; coincident with BSH activity, FIGS. 17A and B): decreased
Firmicutes / Bacteroidetes (qPCR of fecal microbes) (gut microbiome; mice on a high fat diet): shift from Firmicutes to Bacteroidetes
total bacteria (qPCR of fecal microbes) (gut microbiome; mice on a high fat diet): remain unchanged
family Lactobacillaceae (16S rRNA heat map) (gut microbiome; [5]): dramatically decreased
genus Lactobacillus (gut microbiome; [5]): robustly reduced
phylum-level gut microbiome composition in cecum (gut microbiome; normal chow diet, 5 days tempol by gavage 250 mg/kg, 250 mg/kg): shift from Firmicutes to Bacteroidetes; also recorded: Significant phylum-level shifts from Firmicutes to Bacteroidetes
levels of SCFAs (acetate, propionate, butyrate) in cecal contents [3, 6]: significantly decreased
levels of oligosaccharides and glucose in cecal contents [3, 6]: significantly elevated
liver levels of glucose, glycogen, bile acids, nucleotide metabolites, nicotinurate, choline ([3]; wild-type mice): significantly elevated
